Measured values published in publication PMC6888823.
These are yes or no findings as the source states them, for the method shown. Binding seen in cells or lysates may run through a third protein.

Chains of the proteins cited; added tags and fusions are not shown.
UniProt P37238: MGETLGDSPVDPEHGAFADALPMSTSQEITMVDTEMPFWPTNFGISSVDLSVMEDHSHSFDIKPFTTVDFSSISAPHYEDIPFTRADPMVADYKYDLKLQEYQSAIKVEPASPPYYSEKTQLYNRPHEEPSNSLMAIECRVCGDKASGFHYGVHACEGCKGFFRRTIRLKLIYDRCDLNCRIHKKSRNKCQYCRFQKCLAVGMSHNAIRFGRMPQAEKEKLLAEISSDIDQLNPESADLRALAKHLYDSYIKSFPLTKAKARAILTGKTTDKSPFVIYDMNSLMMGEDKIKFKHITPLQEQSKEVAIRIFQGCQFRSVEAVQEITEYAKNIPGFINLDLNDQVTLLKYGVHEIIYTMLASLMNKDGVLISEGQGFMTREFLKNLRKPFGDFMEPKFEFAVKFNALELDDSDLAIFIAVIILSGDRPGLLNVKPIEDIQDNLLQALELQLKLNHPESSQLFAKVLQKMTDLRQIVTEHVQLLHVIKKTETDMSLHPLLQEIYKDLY

Molecular target: T1, Heat shock protein A12A (HSPA12A) (mouse (endogenous in 3T3-L1)) (UniProt Q8K0U4)
T1 sequence: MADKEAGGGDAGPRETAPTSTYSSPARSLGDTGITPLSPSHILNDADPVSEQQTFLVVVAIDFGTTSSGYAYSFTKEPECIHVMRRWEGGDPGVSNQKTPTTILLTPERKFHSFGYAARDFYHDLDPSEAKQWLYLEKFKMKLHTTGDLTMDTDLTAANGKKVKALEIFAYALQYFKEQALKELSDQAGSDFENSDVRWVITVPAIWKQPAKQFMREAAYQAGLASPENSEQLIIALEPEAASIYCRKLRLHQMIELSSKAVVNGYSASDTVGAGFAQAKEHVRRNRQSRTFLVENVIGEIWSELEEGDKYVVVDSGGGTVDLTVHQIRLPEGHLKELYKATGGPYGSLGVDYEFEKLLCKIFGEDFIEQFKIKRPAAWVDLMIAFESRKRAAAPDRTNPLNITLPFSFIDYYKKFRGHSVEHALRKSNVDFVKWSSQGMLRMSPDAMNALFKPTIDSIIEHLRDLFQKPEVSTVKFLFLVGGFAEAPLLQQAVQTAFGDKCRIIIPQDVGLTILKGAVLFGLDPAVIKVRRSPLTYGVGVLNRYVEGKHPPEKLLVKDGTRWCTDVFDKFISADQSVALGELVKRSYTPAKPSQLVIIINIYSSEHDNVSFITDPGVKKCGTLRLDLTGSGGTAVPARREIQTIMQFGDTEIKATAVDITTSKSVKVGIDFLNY
Assay: co-IP; 3T3-L1 cells with or without differentiation precipitated with anti-HSPA12A antibody, immunoblot for PPARγ; input as positive control, normal IgG as negative control

Peroxisome proliferator-activated receptor γ (PPARγ) (from UniProt P37238 1-505)
binding: no binding
